From US20250215029A1 (Recludix Pharma, Inc., priority 2022, published 2025)

Amino acid sequences for entries named in this document (tags omitted). Residues count along the entry.
UniProt P42226, 123-658 limits assumed: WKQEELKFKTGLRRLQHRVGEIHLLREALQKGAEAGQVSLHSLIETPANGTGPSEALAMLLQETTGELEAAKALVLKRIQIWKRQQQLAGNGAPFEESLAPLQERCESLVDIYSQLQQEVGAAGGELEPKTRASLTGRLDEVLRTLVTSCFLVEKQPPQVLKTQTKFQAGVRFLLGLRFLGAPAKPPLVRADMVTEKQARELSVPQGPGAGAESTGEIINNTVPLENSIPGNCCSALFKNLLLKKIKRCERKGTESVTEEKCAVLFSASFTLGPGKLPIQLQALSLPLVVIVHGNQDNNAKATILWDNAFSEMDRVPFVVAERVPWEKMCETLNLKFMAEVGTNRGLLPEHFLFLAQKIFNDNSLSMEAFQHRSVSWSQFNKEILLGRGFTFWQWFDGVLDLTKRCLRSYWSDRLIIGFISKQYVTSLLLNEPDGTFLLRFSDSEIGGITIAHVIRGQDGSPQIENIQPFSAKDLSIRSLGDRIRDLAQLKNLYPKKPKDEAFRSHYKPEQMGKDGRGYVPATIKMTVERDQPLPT
UniProt P42226, whole entry: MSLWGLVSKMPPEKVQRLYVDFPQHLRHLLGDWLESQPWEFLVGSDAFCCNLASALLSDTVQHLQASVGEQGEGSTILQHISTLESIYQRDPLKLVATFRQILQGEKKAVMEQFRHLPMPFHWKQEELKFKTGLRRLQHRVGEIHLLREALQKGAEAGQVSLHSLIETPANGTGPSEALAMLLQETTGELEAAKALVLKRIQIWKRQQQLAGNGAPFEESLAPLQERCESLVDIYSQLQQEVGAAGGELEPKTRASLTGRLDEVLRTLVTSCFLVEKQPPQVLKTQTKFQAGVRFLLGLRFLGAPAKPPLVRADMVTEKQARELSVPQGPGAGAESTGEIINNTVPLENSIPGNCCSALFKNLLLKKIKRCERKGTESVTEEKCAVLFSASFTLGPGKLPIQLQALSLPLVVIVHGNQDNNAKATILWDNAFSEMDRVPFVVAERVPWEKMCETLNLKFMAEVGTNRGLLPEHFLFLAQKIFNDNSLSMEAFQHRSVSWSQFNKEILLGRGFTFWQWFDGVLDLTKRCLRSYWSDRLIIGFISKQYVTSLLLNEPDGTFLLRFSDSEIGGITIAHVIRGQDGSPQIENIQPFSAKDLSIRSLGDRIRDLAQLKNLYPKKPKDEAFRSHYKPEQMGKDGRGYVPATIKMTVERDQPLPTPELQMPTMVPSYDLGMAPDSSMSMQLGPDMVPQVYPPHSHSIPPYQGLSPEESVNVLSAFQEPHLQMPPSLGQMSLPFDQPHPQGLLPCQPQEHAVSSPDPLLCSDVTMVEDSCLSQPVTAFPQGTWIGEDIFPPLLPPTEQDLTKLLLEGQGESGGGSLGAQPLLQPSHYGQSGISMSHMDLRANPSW
UniProt P40763, 127-722 limits assumed: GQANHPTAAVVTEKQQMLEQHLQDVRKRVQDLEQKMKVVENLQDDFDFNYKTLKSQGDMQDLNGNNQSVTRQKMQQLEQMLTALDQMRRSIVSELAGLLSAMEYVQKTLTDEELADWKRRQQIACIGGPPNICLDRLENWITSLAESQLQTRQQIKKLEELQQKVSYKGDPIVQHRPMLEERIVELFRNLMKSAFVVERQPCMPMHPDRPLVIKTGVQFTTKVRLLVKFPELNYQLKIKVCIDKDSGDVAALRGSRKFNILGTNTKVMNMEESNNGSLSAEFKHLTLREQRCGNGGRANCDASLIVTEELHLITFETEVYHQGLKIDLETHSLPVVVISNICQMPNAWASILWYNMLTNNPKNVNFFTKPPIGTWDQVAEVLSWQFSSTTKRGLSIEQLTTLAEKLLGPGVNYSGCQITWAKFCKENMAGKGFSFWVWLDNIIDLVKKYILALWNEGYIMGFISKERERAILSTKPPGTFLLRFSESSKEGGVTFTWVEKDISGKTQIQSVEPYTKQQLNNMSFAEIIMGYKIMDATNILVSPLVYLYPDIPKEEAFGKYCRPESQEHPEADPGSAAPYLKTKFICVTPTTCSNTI

Assays:
pY641-STAT6 in PBMC = pY641-STAT6 in PBMC (Homo sapiens, UniProt P42226); assay: MSD-pSTAT-PBMC Assay (pSTAT6, IL-4 stimulated); conditions: read-out: STAT6, compound 3 hrs, then 1 ng/mL IL-4 for 10 min, Table 115
[1] = target: Recombinant STAT3 protein (STAT3 (G127-I722)) (Homo sapiens, UniProt P40763); assay: STAT3 Fluorescence Polarization (FP) Assay; conditions: read-out: STAT3 (FP assay IC50 class); STAT3 (G127-I722) 25 nM, probe 5-FAM-GpYLPQTV-NH2 2 nM, 45-minute incubation
[2] = target: Recombinant STAT6 protein (STAT6 (W123-T658)) (Homo sapiens, UniProt P42226); assay: STAT6 Fluorescence Polarization (FP) Assay; conditions: read-out: STAT6 (FP assay IC50 class); STAT6 (W123-T658) 250 nM, probe 5-FAM-ApYKPFQDLI-NH2 2 nM, 45-minute incubation

| SMILES | IC50 (pY641-STAT6 in PBMC) [nM] | IC50 [1] [nM] | IC50 [2] [nM] |
| --- | --- | --- | --- |
| CCCOC(=O)[C@H](C)NP(=O)(Oc1ccccc1)[C@@H](F)c1ccc2sc(C(=O)N[C@H]3CCCC[C@H]4CC[C@@H](C(=O)N5C[C@@H](c6cccnc6)CC56CC6)N4C3=O)cc2c1 (single isomer, unassigned) | < 100 |  |  |
| Cn1ccc(C2CN(C(=O)[C@@H]3CC[C@@H]4CCCC[C@H](NC(=O)c5ccc6ccc(C(F)(F)P(=O)(O)O)cc6c5)C(=O)N43)C3(CC3)C2)cc1=O (some centres unmarked) |  | 1000 to 10000 | < 300 |
| CC1C[C@H]2CC[C@@H](C(=O)N3C[C@@H](C#N)[C@H](c4ccccc4)C3)N2C(=O)[C@@H](NC(=O)c2cc3cc(C(F)(F)P(=O)(O)O)ccc3s2)C1 (some centres unmarked) |  | 100 to 1000 | < 300 |

The match of structure and compound is tentative.
